From patent publication US20200223903A1 (NEOMATRIX THERAPEUTICS, published 2020) come the findings set out here.

Amino acid sequences for entries named in this document (tags omitted). Residues count along the entry.
UniProt P01137, residues 279-390: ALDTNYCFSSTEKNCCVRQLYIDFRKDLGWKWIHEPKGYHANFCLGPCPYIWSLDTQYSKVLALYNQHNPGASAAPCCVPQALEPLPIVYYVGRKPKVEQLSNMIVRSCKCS
UniProt P01127, residues 82-190: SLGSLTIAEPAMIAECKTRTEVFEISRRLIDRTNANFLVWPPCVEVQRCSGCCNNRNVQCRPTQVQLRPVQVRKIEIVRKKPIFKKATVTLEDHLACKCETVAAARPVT

No constants are given. Whether binding was seen depends on the method and setting. Some entries that bind do so weakly or less than the wild type.

Experiment [1] addresses Transforming Growth Factor-Beta1 (UniProt P01137). Kind of experiment: SPR (Biacore T200), real time interaction of peptide with growth factor.
The target of experiment [2] is platelet-derived growth factor-BB (UniProt P01127). The description is as above.

B1: P46 (HISKYILRWRPKNSV), fibronectin-derived peptide (peptide)
peptide: HISKYILRWRPKNSV
notes: Found as an elastase digestion product of FNIII1-C and then synthesized; Linear
As to B1, the binding result in experiment [1] and in experiment [2] was “binds” in each case.
Turning to HIGKYGLRWRPKGSV (cyclic: N terminus amino acid bound to the C terminus amino acid) [cNP8, cyclic …, elastase-resistant engineered peptide derived from P46], the binding result in experiment [1] and in experiment [2] was “binds” throughout.
